Measured values as given in the supplement of paper PMC10849652.
Some of the results follow.

Chains of the proteins cited; added tags and fusions are not shown. Lines headed by an entry give the natural chain unless they say otherwise; changes in a name come on top.
UniProt Q9UHX1: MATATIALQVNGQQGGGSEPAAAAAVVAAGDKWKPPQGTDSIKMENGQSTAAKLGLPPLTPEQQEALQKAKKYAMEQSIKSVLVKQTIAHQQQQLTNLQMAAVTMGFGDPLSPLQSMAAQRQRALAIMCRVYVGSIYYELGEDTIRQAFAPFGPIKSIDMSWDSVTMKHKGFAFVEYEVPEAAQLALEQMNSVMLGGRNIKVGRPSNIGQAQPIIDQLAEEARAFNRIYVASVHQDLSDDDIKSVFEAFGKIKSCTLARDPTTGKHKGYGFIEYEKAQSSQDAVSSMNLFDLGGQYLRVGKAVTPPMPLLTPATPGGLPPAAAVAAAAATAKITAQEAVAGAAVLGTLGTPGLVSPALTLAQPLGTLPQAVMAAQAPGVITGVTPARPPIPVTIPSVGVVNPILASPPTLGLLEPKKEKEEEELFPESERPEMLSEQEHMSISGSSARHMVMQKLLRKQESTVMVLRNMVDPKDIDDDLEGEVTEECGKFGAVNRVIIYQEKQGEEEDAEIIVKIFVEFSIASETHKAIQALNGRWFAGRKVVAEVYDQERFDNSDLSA
UniProt P20618: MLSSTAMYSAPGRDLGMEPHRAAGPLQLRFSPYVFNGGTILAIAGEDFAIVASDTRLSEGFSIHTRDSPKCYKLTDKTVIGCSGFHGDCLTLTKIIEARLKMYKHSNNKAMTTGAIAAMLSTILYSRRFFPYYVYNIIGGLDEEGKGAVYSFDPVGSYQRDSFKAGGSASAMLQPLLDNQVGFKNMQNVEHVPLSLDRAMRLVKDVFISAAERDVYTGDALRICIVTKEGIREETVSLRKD
UniProt P08575: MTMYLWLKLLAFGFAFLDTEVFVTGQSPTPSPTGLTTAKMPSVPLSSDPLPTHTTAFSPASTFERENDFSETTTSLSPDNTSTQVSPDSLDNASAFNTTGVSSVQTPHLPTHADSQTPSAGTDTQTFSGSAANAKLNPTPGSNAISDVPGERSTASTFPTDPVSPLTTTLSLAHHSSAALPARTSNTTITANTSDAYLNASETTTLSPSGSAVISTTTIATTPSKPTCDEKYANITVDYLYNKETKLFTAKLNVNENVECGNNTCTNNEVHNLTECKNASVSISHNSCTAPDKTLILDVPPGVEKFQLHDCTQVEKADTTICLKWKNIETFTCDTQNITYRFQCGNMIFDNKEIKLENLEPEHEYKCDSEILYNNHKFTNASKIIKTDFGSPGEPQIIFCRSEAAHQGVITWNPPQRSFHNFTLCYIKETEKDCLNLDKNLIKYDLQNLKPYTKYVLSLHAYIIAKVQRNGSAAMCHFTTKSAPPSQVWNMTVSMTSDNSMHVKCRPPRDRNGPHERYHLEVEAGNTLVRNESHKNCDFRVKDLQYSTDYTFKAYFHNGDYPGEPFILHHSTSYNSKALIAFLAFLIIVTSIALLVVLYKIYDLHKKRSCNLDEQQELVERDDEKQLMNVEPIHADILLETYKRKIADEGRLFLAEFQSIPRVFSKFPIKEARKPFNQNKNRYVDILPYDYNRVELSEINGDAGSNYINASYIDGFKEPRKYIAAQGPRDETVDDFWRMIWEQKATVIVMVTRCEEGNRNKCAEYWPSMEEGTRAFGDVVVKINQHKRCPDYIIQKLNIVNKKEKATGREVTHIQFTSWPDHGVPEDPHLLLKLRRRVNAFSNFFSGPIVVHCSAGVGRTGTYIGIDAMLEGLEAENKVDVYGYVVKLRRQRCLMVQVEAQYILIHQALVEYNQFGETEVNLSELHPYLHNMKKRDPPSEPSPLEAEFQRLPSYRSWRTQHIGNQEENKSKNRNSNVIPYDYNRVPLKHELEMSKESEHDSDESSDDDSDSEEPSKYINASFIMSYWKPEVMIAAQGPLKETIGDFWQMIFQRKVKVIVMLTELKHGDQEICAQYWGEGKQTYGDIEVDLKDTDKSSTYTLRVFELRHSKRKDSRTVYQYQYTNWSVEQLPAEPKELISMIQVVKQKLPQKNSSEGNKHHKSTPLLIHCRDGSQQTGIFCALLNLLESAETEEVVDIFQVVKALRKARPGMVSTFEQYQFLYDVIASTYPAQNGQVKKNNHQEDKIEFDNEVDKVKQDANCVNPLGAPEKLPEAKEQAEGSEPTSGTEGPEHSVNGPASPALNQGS
UniProt Q96PZ0: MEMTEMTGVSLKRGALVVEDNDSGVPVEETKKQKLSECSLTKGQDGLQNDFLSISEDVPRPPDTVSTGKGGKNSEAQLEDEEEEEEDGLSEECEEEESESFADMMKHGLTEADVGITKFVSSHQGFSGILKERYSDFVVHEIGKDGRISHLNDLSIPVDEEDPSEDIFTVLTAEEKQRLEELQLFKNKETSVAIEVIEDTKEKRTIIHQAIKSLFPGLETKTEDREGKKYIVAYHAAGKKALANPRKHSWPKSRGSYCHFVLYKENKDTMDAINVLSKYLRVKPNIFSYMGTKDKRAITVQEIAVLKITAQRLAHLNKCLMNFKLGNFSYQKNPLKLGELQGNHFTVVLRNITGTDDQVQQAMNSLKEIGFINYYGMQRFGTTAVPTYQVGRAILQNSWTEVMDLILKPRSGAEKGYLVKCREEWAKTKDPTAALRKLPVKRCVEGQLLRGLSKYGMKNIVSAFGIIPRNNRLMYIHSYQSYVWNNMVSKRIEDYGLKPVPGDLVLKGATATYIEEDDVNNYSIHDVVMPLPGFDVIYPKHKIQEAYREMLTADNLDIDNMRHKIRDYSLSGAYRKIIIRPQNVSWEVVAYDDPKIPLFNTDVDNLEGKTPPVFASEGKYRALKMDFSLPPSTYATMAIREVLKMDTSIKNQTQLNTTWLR
UniProt P20962: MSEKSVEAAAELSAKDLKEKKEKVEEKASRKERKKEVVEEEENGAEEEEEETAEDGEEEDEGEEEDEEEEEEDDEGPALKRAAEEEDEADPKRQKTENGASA
UniProt Q96QR8: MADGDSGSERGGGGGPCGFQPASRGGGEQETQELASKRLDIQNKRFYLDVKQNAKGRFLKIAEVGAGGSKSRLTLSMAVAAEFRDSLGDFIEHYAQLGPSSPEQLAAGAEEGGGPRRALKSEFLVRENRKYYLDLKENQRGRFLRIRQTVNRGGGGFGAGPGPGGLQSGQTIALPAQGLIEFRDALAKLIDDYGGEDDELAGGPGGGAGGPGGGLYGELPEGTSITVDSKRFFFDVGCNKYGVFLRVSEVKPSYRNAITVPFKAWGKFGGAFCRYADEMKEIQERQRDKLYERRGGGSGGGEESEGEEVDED
UniProt Q5JS54: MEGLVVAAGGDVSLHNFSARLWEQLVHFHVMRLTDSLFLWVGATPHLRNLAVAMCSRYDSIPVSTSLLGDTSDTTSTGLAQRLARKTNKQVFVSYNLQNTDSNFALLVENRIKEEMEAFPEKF
UniProt P25789: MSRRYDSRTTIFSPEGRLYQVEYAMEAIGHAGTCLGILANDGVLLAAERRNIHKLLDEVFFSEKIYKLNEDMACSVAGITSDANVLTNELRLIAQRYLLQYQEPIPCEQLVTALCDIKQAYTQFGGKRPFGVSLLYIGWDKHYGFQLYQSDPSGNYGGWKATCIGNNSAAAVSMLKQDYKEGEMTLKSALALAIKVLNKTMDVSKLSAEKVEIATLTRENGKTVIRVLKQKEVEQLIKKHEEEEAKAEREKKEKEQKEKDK
UniProt O95997: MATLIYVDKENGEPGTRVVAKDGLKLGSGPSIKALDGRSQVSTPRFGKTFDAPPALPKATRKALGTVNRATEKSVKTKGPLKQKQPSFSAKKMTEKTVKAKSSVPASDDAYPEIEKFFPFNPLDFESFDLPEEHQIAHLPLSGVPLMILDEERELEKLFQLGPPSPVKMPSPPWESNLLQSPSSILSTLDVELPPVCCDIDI
UniProt P51665: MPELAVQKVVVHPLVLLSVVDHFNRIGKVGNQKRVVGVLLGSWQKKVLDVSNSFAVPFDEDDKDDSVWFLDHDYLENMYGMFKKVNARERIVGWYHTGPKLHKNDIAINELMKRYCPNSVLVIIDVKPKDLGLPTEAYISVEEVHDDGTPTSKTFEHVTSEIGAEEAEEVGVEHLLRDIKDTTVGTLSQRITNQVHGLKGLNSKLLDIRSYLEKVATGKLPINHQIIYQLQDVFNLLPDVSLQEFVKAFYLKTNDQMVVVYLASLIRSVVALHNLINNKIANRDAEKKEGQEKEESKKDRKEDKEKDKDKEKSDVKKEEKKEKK
UniProt Q9UNM6: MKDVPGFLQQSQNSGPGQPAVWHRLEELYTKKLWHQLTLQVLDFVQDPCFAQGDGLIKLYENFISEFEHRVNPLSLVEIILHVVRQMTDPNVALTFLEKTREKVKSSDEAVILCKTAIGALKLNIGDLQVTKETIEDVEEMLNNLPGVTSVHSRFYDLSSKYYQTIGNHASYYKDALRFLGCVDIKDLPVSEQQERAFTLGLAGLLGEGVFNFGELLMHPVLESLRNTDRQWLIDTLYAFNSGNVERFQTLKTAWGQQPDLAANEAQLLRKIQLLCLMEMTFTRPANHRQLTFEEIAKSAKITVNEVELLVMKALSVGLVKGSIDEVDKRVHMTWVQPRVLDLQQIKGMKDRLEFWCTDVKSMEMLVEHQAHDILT
UniProt P35236: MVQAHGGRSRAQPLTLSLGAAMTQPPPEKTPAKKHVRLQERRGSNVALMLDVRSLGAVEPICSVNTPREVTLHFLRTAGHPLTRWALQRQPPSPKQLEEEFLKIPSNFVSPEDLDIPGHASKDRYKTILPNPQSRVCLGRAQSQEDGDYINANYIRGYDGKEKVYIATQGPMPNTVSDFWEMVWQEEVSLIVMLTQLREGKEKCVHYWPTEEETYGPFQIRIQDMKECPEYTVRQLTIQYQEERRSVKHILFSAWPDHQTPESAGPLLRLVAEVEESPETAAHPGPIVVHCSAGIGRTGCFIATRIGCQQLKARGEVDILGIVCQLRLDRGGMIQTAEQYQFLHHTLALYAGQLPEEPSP
UniProt Q6GMV3: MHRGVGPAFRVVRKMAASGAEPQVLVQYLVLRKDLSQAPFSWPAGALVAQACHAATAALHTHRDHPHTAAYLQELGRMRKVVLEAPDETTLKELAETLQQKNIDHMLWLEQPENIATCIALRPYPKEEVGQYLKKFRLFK
UniProt P28065: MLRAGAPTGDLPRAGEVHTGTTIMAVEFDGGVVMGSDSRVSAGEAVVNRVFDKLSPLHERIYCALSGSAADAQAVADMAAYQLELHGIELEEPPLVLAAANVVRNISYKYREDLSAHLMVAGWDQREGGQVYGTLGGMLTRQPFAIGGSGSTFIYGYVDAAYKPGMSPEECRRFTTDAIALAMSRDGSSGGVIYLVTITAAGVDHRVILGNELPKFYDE
UniProt Q15008: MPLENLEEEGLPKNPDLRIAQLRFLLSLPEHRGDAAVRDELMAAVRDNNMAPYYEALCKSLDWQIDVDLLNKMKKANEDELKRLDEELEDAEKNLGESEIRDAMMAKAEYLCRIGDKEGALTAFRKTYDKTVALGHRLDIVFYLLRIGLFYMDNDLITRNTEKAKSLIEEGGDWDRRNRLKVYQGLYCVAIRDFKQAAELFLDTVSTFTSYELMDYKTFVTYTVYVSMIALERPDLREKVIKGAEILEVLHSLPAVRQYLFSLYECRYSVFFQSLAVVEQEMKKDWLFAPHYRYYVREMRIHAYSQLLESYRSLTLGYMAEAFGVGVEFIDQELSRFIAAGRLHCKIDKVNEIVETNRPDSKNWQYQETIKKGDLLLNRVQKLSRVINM
UniProt O00231, whole entry, looked up: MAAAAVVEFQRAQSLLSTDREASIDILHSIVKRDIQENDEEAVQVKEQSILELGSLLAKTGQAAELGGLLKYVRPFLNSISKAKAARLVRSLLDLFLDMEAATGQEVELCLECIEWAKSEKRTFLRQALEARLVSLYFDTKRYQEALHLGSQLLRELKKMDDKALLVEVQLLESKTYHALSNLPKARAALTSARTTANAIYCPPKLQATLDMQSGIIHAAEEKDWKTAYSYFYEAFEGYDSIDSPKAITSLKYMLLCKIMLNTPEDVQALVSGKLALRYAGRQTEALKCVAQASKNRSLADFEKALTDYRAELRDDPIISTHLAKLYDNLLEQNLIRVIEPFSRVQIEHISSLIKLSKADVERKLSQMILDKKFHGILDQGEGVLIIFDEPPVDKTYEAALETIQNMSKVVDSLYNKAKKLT
UniProt P25788: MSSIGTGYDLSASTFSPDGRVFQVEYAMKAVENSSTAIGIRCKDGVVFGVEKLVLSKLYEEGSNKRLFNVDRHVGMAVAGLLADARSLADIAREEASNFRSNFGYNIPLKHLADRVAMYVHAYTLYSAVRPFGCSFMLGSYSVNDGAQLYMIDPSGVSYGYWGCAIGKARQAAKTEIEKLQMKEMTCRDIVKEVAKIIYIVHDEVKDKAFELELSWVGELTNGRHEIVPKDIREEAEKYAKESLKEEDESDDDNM
UniProt Q93096: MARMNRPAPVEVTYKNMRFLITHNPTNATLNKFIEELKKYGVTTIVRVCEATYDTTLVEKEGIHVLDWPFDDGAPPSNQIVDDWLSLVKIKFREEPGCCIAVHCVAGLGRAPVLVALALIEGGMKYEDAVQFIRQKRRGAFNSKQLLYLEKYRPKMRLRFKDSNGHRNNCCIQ

compound: NCC(=O)Nc1ccc(-n2nc(C(F)(F)F)cc2-c2ccc3c(ccc4ccccc43)c2)cc1; experiment: log2 fold change, soluble protein after heating vs DMSO (PISA); higher = thermal stabilisation; K562 lysate, 10 uM; active = over 0.2 and 3.5 SD of the protein, either way, in both replicates (recomputed)
Summary of the method: (§1)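 Values give the log-two fold change in thermal stability against solvent controls, from duplicates. Crude K562 extract at 1 mg/mL protein, made by dounce homogenisation in PBS pH 7.4 with 1 mM MgCl2, was treated with 10 μM compound for 30 min. After 3 min heating across 48°C-58°C, aliquots were pooled, adjusted to 0.5% NP-40 at 4°C and centrifuged at 21,000xg for 90 min. The supernatant was measured by TMTpro 16plex LC-MS/MS with channel sums equalised.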

Target	log2 fold change
PUF60 isoform 2 (UniProt Q9UHX1)	inactive: -0.061
PSMB1 (UniProt P20618)	inactive: 0.024
PSMB6 (UniProt P28072)	inactive: 0.017
PRPS1 (UniProt B1ALA9)	inactive: -0.005
PTPRC (UniProt P08575)	inactive: 0
PTPRA (UniProt P18433)	inactive: -0.015
PUS3 (UniProt Q9BZE2)	inactive: 0.051
PUS7 isoform 2 (UniProt Q96PZ0)	inactive: 0.023
PTMS (UniProt P20962)	inactive: 0.012
PURB (UniProt Q96QR8)	inactive: -0.004

compound: O=C(CCCCCCC(=O)Nc1ccccc1)NO [vorinostat]; experiment: as above
Summary of the method: as §1

Target	log2 fold change
PSMG4 isoform 2 (UniProt Q5JS54)	inactive: 0
PSMA4 (UniProt P25789)	inactive: 0.089
PTTG1 (UniProt O95997)	inactive: 0.061
PSMD7 (UniProt P51665)	inactive: 0.026
PUSL1 (UniProt Q8N0Z8)	inactive: -0.003
PTGS1 isoform 6 (UniProt P23219)	inactive: 0.05
PRR14L (UniProt Q5THK1)	inactive: -0.022
PSME3 isoform 2 (UniProt P61289)	inactive: 0.068
PSMD13 (UniProt Q9UNM6)	inactive: -0.034
PTK7 isoform 6 (UniProt Q13308)	inactive: 0.107
PTPN7 isoform 3 (UniProt P35236)	active: -0.491
PRRC2B (UniProt Q5JSZ5)	inactive: -0.06
PTRHD1 (UniProt Q6GMV3)	inactive: 0.227
PSMB9 (UniProt P28065)	inactive: 0.057
PTCD3 (UniProt Q96EY7)	inactive: -0.094
PSMD6 isoform 4 (UniProt Q15008)	inactive: 0.075

Target	log2 fold change
PSMD11 (UniProt O00231)	inactive: 0.015
PSMA3 (UniProt P25788)	inactive: 0.091
PSIP1 (UniProt O75475)	inactive: 0.097
PSMD5 (UniProt Q16401)	inactive: 0.042
PTP4A1 (UniProt Q93096)	active: -0.292
PSAT1 (UniProt Q9Y617)	inactive: 0.137
PUF60 isoform 2 (UniProt Q9UHX1)	inactive: 0.23
PSMB1 (UniProt P20618)	inactive: 0.125
PSMB6 (UniProt P28072)	inactive: 0.136
PRPS1 (UniProt B1ALA9)	inactive: -0.119
PTPRC (UniProt P08575)	inactive: 0.092
PTPRA (UniProt P18433)	inactive: -0.056
PUS3 (UniProt Q9BZE2)	active: -0.527
PUS7 isoform 2 (UniProt Q96PZ0)	inactive: 0.02
PTMS (UniProt P20962)	inactive: 0.107
PURB (UniProt Q96QR8)	inactive: 0.064
